Measurements taken from PMC10645886.
These are yes or no findings as the source states them, for the method shown. Binding seen in cells or lysates may run through a third protein. A yes stands for co-enrichment or nearness to the bait. Other partners may have been found.

The chains behind the UniProt entries cited, without tags or fusion partners. Residues count along the entry.
UniProt P02751, residues 32-2477: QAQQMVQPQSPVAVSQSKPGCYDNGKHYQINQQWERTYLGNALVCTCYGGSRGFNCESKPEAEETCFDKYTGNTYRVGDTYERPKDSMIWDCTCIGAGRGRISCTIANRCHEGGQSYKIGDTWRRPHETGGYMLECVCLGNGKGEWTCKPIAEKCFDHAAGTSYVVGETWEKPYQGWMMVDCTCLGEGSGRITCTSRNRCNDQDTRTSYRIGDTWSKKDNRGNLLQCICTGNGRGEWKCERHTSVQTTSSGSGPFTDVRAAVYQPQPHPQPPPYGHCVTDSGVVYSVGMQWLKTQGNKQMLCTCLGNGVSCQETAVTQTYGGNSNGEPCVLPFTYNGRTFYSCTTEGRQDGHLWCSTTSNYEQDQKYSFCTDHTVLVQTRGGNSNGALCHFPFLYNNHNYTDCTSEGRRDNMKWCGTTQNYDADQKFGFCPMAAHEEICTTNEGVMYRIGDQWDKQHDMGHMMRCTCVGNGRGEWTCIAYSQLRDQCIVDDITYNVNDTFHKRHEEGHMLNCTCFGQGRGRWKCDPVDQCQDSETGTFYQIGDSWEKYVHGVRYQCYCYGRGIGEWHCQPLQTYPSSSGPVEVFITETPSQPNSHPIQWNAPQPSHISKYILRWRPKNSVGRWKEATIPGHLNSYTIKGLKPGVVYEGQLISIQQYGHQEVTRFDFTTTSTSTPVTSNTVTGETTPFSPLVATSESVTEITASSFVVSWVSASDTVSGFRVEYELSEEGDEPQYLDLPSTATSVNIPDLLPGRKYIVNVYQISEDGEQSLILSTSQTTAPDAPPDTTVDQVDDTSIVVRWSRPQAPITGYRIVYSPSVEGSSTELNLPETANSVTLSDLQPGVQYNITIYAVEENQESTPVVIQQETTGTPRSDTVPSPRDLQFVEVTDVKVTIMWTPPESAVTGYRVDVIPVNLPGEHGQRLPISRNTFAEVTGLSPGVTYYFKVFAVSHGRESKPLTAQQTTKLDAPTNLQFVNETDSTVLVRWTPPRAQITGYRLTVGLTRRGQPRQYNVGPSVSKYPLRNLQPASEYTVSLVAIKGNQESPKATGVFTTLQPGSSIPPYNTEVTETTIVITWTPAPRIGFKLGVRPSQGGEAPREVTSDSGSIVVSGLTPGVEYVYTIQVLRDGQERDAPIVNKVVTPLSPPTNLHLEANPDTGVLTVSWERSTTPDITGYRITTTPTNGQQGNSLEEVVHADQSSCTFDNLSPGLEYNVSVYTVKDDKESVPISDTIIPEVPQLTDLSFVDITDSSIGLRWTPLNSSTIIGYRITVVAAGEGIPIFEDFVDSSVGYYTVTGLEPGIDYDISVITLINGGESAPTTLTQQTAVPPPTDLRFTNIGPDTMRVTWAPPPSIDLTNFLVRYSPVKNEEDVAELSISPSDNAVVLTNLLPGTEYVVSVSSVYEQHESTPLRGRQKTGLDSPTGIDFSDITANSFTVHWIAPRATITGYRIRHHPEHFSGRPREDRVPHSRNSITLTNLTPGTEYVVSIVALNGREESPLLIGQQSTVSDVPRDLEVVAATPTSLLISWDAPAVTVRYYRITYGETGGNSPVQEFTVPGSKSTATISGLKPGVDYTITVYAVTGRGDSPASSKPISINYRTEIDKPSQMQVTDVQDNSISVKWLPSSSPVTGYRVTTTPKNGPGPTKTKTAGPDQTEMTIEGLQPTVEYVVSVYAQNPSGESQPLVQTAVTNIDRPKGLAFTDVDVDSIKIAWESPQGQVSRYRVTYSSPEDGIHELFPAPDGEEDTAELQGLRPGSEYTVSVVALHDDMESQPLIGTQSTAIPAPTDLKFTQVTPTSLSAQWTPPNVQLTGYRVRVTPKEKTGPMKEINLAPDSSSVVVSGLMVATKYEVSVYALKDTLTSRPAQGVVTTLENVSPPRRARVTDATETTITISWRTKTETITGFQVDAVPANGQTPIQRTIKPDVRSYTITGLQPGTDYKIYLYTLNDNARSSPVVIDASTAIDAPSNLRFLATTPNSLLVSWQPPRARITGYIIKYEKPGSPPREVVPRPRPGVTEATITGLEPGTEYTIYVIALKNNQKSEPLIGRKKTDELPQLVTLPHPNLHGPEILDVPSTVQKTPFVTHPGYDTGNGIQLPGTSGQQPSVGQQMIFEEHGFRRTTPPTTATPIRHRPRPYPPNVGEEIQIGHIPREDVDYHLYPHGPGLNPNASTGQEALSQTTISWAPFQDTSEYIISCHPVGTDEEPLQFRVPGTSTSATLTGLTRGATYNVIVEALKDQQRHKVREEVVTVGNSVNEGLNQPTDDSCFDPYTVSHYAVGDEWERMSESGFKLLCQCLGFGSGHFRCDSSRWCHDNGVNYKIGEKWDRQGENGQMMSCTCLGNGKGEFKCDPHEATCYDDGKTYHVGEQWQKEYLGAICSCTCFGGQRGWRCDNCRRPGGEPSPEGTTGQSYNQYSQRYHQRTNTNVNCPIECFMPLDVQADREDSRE
UniProt O60826: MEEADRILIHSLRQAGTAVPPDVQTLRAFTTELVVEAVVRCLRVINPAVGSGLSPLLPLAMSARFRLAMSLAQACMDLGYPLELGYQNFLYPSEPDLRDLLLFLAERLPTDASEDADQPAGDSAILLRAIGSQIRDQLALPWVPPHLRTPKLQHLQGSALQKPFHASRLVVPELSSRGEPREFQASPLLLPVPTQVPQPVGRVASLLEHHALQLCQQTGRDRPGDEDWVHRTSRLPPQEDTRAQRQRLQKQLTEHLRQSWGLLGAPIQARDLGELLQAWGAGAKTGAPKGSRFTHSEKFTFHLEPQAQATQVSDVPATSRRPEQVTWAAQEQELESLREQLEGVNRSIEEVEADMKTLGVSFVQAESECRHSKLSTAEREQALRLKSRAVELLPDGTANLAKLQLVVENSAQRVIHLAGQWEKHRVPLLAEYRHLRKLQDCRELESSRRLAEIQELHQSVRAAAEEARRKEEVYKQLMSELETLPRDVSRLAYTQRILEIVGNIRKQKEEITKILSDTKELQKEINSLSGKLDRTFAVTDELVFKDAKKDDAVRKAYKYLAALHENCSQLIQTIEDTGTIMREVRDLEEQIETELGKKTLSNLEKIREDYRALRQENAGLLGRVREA
UniProt Q04206: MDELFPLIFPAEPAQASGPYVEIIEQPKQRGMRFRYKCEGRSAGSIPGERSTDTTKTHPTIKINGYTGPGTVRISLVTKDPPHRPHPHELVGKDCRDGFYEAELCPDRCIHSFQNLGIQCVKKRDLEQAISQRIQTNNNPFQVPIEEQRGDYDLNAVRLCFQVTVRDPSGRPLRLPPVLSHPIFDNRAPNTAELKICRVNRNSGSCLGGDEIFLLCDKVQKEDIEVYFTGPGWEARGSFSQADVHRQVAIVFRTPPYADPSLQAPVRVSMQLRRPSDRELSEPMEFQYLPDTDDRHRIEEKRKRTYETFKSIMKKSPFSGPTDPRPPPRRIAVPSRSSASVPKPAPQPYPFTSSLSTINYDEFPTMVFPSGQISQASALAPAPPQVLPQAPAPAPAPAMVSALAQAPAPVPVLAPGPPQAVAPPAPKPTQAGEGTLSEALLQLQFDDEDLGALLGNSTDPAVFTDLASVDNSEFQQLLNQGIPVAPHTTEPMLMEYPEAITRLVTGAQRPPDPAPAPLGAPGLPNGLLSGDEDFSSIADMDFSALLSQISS
UniProt Q7Z434: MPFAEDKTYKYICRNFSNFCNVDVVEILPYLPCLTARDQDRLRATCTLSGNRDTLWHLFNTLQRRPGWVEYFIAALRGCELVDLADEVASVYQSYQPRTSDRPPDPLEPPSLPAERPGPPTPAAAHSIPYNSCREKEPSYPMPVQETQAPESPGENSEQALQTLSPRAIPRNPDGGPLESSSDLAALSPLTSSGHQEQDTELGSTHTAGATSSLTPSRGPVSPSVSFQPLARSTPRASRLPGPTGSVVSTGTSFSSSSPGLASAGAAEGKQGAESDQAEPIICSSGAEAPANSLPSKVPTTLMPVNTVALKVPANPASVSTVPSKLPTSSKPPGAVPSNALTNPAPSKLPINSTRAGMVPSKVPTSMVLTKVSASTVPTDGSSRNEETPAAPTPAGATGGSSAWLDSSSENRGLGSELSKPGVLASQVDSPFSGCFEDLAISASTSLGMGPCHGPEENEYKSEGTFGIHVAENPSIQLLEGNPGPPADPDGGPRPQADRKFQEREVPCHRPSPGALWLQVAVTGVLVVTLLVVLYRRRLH
UniProt P51617: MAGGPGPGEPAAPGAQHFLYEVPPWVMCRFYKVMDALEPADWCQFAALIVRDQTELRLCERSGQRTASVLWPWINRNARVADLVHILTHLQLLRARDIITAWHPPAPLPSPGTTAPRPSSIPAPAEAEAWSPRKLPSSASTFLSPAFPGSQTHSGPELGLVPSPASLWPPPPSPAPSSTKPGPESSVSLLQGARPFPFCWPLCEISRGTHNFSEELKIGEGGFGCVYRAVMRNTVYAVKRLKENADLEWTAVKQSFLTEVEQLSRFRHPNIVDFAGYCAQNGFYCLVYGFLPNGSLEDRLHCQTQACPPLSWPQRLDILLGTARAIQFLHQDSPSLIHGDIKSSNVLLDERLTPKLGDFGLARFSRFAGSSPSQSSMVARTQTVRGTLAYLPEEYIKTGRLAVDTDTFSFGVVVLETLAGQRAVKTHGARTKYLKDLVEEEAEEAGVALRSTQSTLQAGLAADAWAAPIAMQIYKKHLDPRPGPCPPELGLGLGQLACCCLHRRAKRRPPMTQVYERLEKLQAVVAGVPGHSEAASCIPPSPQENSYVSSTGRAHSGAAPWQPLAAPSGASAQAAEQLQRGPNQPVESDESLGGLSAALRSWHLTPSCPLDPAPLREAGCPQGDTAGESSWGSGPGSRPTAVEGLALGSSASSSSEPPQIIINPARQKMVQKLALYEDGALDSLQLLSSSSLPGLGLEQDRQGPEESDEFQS
UniProt Q9Y6K9: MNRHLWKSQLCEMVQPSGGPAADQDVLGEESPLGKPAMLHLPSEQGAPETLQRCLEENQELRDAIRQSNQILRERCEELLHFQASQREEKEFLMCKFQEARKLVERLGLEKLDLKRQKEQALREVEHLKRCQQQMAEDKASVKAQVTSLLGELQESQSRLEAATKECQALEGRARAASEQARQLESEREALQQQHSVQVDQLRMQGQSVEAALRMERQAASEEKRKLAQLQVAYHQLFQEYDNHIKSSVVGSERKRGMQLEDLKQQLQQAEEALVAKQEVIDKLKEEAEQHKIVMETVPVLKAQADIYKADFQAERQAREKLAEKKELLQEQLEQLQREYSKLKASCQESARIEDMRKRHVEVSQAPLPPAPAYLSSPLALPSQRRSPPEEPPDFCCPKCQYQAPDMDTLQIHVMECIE
UniProt P78504, residues 34-1218: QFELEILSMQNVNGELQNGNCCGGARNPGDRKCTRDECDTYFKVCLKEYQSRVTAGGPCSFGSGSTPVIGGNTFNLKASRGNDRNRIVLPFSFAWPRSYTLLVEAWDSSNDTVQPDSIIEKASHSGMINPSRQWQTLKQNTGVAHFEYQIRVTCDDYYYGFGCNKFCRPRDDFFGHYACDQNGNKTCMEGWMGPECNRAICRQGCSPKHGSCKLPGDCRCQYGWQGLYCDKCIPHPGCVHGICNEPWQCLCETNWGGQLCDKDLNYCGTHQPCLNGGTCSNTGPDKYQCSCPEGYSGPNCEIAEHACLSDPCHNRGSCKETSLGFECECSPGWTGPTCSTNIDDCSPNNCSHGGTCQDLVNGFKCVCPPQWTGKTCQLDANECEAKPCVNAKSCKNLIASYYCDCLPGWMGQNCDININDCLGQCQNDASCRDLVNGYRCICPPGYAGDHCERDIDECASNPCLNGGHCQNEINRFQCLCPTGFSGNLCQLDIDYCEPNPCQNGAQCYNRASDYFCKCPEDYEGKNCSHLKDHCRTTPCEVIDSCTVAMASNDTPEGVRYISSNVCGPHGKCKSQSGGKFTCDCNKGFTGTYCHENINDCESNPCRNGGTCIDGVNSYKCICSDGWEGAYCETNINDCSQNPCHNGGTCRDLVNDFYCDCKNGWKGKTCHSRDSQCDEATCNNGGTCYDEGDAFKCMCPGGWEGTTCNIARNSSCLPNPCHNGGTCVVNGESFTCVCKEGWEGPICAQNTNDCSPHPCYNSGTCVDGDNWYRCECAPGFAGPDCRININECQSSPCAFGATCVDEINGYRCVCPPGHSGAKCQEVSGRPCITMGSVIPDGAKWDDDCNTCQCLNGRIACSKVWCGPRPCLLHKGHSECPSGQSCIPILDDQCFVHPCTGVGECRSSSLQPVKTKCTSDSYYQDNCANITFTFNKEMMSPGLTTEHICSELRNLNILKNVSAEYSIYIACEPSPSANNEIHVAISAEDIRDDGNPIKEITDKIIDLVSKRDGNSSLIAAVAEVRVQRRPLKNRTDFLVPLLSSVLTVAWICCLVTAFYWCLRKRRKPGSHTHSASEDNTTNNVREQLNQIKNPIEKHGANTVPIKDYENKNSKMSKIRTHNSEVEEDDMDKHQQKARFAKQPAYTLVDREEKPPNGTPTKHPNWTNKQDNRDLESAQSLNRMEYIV

T1: protein tyrosine phosphatase 1B (PTP1B) (human (endogenous in U251 and KM12SM)) (UniProt P18031)
T1 sequence: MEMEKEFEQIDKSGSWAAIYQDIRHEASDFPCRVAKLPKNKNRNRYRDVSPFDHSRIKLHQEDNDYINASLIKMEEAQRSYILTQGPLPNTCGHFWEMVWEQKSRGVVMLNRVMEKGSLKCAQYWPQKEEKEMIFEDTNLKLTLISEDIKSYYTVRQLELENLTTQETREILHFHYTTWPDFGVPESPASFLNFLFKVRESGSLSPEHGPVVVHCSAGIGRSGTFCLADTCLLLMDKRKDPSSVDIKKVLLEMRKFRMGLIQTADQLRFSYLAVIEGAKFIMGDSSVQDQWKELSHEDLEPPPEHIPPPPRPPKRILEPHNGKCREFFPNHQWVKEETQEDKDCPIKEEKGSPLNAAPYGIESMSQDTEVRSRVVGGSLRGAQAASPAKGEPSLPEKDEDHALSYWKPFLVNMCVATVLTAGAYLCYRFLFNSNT

T2: PTP1B bait of the BioID assay (HEK293 Flip-In PTP1B cells) (UniProt P18031)
T2 sequence: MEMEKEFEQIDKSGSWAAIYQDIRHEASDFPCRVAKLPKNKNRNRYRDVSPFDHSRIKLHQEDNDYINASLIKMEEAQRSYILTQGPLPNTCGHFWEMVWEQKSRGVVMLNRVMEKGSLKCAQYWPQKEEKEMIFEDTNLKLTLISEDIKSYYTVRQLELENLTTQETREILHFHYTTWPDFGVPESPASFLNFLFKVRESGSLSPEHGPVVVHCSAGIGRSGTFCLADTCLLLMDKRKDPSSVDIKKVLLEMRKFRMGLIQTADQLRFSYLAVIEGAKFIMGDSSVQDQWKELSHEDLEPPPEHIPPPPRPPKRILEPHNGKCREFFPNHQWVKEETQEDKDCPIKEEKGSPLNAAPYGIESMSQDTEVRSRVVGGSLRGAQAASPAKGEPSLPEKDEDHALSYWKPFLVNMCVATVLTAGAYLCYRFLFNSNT


What was measured:
[1] = molecular target: T1, protein tyrosine phosphatase 1B (PTP1B) (human (endogenous in U251 and KM12SM)); experiment: affinity purification with mass spectrometry; 1 mg of U251 cell lysate immunoprecipitated with anti-PTP1B (#sc-133115) or an irrelevant control antibody; SDS-PAGE, in-gel trypsin digestion, mass spectrometry; fold-change threshold of 3 against the control antibody, CRAPome filter
[2] = molecular target: T2, PTP1B bait of the BioID assay (HEK293 Flip-In PTP1B cells); experiment: proximity labelling; proximity biotinylation BioID coupled with mass spectrometry in HEK293 Flip-In PTP1B cells; methods in the supplementary information

| binding [1] | binding [2] | Molecule |
| --- | --- | --- |
| binds | – | casein kinase 2 (CSNK2) (human (endogenous in U251)) (enzyme) |
| binds | – | fibronectin (FN) (from UniProt P02751 32-2477) |
| – | binds | CCDC22 (from UniProt O60826 1-627) |
| – | binds | TBK1 (from UniProt Q9UHD2 1-729) |
| binds | – | NF-κB p65 subunit (RELA) (from UniProt Q04206 1-551) |
| – | binds | MAVS (from UniProt Q7Z434 1-540) |
| – | binds | IRAK1 (from UniProt P51617 1-712) |
| binds | – | Tenascin-C (TNC) (from UniProt P24821 23-2201) |
| binds | – | NEMO (IKBKG) (from UniProt Q9Y6K9 1-419) |
| binds | – | JAG1 (from UniProt P78504 34-1218) |
| binds | – | NFKBIE (protein, UniProt O00221 1-500) MNQRRSESRPGNHRLQAYAEPGKGDSGGAGPLSGSARRGRGGGGAIRVRRPCWSGGAGRGGGPAWAVRLPTVTAGWTWPALRTLSSLRAGPSEPHSPGRRPPRAGRPLCQADPQPGKAARRSLEPDPAQTGPRPARAAGMSEARKGPDEAEESQYDSGIESLRSLRSLPESTSAPASGPSDGSPQPCTHPPGPVKEPQEKEDADGERADSTYGSSSLTYTLSLLGGPEAEDPAPRLPLPHVGALSPQQLEALTYISEDGDTLVHLAVIHEAPAVLLCCLALLPQEVLDIQNNLYQTALHLAVHLDQPGAVRALVLKGASRALQDRHGDTALHVACQRQHLACARCLLEGRPEPGRGTSHSLDLQLQNWQGLACLHIATLQKNQPLMELLLRNGADIDVQEGTSGKTALHLAVETQERGLVQFLLQAGAQVDARMLNGCTPLHLAAGRGLMGISSTLCKAGADSLLRNVEDETPQDLTEESLVLLPFDDLKISGKLLLCTD |
| – | binds | EFHD2 (protein, UniProt Q96C19 1-240) MATDELATKLSRRLQMEGEGGGETPEQPGLNGAAAAAAGAPDEAAEALGSADCELSAKLLRRADLNQGIGEPQSPSRRVFNPYTEFKEFSRKQIKDMEKMFKQYDAGRDGFIDLMELKLMMEKLGAPQTHLGLKNMIKEVDEDFDSKLSFREFLLIFRKAAAGELQEDSGLCVLARLSEIDVSSEGVKGAKSFFEAKVQAINVSSRFEEEIKAEQEERKKQAEEMKQRKAAFKELQSTFK |
| – | binds | IKBIP (protein, UniProt Q70UQ0 1-350) MSEVKSRKKSGPKGAPAAEPGKRSEGGKTPVARSSGGGGWADPRTCLSLLSLGTCLGLAWFVFQQSEKFAKVENQYQLLKLETNEFQQLQSKISLISEKWQKSEAIMEQLKSFQIIAHLKRLQEEINEVKTWSNRITEKQDILNNSLTTLSQDITKVDQSTTSMAKDVGLKITSVKTDIRRISGLVTDVISLTDSVQELENKIEKVEKNTVKNIGDLLSSSIDRTATLRKTASENSQRINSVKKTLTELKSDFDKHTDRFLSLEGDRAKVLKTVTFANDLKPKVYNLKKDFSRLEPLVNDLTLRIGRLVTDLLQREKEIAFLSEKISNLTIVQAEIKDIKDEIAHISDMN |
| binds | – | NFKBIB (protein, UniProt Q15653 1-356) MAGVACLGKAADADEWCDSGLGSLGPDAAAPGGPGLGAELGPGLSWAPLVFGYVTEDGDTALHLAVIHQHEPFLDFLLGFSAGTEYMDLQNDLGQTALHLAAILGETSTVEKLYAAGAGLCVAERRGHTALHLACRVGAHACARALLQPRPRRPREAPDTYLAQGPDRTPDTNHTPVALYPDSDLEKEEEESEEDWKLQLEAENYEGHTPLHVAVIHKDVEMVRLLRDAGADLDKPEPTCGRSPLHLAVEAQAADVLELLLRAGANPAARMYGGRTPLGSAMLRPNPILARLLRAHGAPEPEGEDEKSGPCSSSSDSDSGDEGDEYDDIVVHSSRSQTRLPPTPASKPLPDDPRPV |
